# Reference: article PMC11649564
# Chains of the proteins cited; added tags and fusions are not shown. Residues count along the entry.
# UniProt Q8BYM5, residues 35-825: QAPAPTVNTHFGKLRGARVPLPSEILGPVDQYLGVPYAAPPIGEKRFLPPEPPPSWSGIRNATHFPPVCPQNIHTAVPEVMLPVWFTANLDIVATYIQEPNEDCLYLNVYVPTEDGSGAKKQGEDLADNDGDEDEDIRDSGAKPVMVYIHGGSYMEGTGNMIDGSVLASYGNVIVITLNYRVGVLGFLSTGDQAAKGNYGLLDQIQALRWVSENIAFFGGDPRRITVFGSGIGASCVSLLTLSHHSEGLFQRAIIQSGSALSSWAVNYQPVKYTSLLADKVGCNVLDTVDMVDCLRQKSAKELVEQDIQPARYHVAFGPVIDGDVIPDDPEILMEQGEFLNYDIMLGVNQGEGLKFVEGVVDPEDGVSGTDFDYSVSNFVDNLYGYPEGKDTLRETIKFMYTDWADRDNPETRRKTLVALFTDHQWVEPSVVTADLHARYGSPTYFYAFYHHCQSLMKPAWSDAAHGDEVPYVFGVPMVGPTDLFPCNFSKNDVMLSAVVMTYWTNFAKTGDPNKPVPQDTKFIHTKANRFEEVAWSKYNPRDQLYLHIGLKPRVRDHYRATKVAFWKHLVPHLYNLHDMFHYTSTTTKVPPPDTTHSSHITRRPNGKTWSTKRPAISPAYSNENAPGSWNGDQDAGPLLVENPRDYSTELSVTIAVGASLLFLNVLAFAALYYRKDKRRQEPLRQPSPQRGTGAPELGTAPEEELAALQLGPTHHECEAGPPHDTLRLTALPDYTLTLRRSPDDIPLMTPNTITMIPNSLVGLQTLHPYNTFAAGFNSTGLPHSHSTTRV
# No constants are given. Whether binding was seen depends on the method and setting.
# Target: T1, Myelin-associated glycoprotein (UniProt P20917)
# T1 sequence: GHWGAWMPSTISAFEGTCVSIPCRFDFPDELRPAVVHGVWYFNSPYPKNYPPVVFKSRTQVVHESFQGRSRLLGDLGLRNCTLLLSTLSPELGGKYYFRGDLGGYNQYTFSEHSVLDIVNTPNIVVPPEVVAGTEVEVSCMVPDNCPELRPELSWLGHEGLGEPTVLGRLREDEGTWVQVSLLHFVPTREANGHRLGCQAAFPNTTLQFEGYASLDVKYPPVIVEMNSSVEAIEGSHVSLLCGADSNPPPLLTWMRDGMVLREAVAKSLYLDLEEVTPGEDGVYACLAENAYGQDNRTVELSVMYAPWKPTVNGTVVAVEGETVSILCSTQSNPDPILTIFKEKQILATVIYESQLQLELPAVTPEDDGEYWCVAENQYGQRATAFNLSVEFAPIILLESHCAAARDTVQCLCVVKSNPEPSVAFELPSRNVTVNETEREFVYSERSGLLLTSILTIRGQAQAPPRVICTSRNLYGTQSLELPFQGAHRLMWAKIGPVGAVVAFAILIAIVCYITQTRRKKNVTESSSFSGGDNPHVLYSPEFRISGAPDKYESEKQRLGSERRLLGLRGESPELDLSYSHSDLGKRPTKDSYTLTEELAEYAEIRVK
# Experiment: cell aggregation assay; Nlgn3 and MAG overexpressed in HEK293 cells; tests transcellular interaction
substance,measurement,value
Neuroligin-3 (from UniProt Q8BYM5 35-825),binding,no binding
